Some of the results follow.
Key:
Test in all cases: glycan array binding signal (z-score within array); higher = stronger binding
Conditions in all cases: glycan notation: IUPAC condensed, linker removed
Fuc(a1-2)Gal = molecular target: Fuc(a1-2)Gal
How it was run: (§1)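 Arrays were curated from the Consortium for Functional Glycomics database, 3228 in total, and kept only where the protein sequence was available. Binding is expressed as a within-array Z-score. This score was averaged across arrays of the same protein sequence at different concentrations or buffers and across linkers, and negative values can be read as non-binding.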

Fuc(a1-2)Gal(b1-3)GalNAc = molecular target: Fuc(a1-2)Gal(b1-3)GalNAc
How it was run: as §1

[1] = molecular target: Fuc(a1-2)Gal(b1-3)GalNAc(a1-3)[Fuc(a1-2)]Gal(b1-4)Glc
How it was run: as §1

[2] = molecular target: Fuc(a1-2)Gal(b1-3)GalNAc(a1-3)[Fuc(a1-2)]Gal(b1-4)GlcNAc
How it was run: as §1

[3] = molecular target: Fuc(a1-2)Gal(b1-3)GalNAc(b1-3)Gal
How it was run: as §1

[4] = molecular target: Fuc(a1-2)Gal(b1-3)GalNAc(b1-3)Gal(a1-4)Gal(b1-4)Glc
How it was run: as §1

[5] = molecular target: Fuc(a1-2)Gal(b1-3)GalNAc(b1-4)[Neu5Ac(a2-3)]Gal(b1-4)Glc
How it was run: as §1

Fuc(a1-2)Gal(b1-3)GlcNAc = molecular target: Fuc(a1-2)Gal(b1-3)GlcNAc
How it was run: as §1

[6] = molecular target: Fuc(a1-2)Gal(b1-3)GlcNAc(b1-2)Man(a1-3)[Fuc(a1-2)Gal(b1-3)GlcNAc(b1-2)Man(a1-6)]Man(b1-4)GlcNAc(b1-4)GlcNAc
How it was run: as §1

[7] = molecular target: Fuc(a1-2)Gal(b1-3)GlcNAc(b1-2)Man(a1-3)[Fuc(a1-2)Gal(b1-3)GlcNAc(b1-2)Man(a1-6)]Man(b1-4)GlcNAc(b1-4)[Fuc(a1-6)]GlcNAc
How it was run: as §1

[8] = molecular target: Fuc(a1-2)Gal(b1-3)GlcNAc(b1-3)Gal(b1-4)Glc
How it was run: as §1

[9] = molecular target: Fuc(a1-2)Gal(b1-3)GlcNAc(b1-3)GalNAc
How it was run: as §1

[10] = molecular target: Fuc(a1-2)Gal(b1-3)GlcNAc(b1-3)[Fuc(a1-3)[Gal(b1-4)]GlcNAc(b1-6)]Gal(b1-4)Glc
How it was run: as §1

[11] = molecular target: Fuc(a1-2)Gal(b1-3)GlcNAc(b1-3)[Gal(b1-4)GlcNAc(b1-6)]Gal(b1-4)Glc
How it was run: as §1

[12] = molecular target: Fuc(a1-2)Gal(b1-3)GlcNAc(b1-3)[Neu5Ac(a2-6)Gal(b1-4)GlcNAc(b1-6)]Gal(b1-4)Glc
How it was run: as §1

[13] = molecular target: Fuc(a1-2)Gal(b1-3)[Fuc(a1-4)]GlcNAc
How it was run: as §1

[14] = molecular target: Fuc(a1-2)Gal(b1-3)[Fuc(a1-4)]GlcNAc(b1-2)Man(a1-3)[Fuc(a1-2)Gal(b1-3)[Fuc(a1-4)]GlcNAc(b1-2)Man(a1-6)]Man(b1-4)GlcNAc(b1-4)GlcNAc
How it was run: as §1

[15] = molecular target: Fuc(a1-2)Gal(b1-3)[Fuc(a1-4)]GlcNAc(b1-3)[Fuc(a1-3)[Gal(b1-4)]GlcNAc(b1-6)]Gal(b1-4)Glc
How it was run: as §1

[16] = molecular target: Fuc(a1-2)Gal(b1-3)[Fuc(a1-4)]GlcNAc(b1-3)[Gal(b1-4)GlcNAc(b1-6)]Gal(b1-4)Glc
How it was run: as §1

Fuc(a1-2)Gal(b1-4)Glc = molecular target: Fuc(a1-2)Gal(b1-4)Glc
How it was run: as §1

Fuc(a1-2)Gal(b1-4)Glc6S = molecular target: Fuc(a1-2)Gal(b1-4)Glc6S
How it was run: as §1

Fuc(a1-2)Gal(b1-4)GlcNAc = molecular target: Fuc(a1-2)Gal(b1-4)GlcNAc
How it was run: as §1

[17] = molecular target: Fuc(a1-2)Gal(b1-4)GlcNAc(b1-2)Man(a1-3)[Fuc(a1-2)Gal(b1-4)GlcNAc(b1-2)Man(a1-6)]Man(b1-4)GlcNAc(b1-4)GlcNAc
How it was run: as §1

[18] = molecular target: Fuc(a1-2)Gal(b1-4)GlcNAc(b1-2)Man(a1-3)[Fuc(a1-2)Gal(b1-4)GlcNAc(b1-2)Man(a1-6)]Man(b1-4)GlcNAc(b1-4)[Fuc(a1-6)]GlcNAc
How it was run: as §1

[19] = molecular target: Fuc(a1-2)Gal(b1-4)GlcNAc(b1-2)[Fuc(a1-2)Gal(b1-4)GlcNAc(b1-4)]Man(a1-3)[Fuc(a1-2)Gal(b1-4)GlcNAc(b1-2)Man(a1-6)]Man(b1-4)GlcNAc(b1-4)GlcNAc
How it was run: as §1

[20] = molecular target: Fuc(a1-2)Gal(b1-4)GlcNAc(b1-3)Gal(b1-4)GlcNAc
How it was run: as §1

[21] = molecular target: Fuc(a1-2)Gal(b1-4)GlcNAc(b1-3)Gal(b1-4)GlcNAc(b1-3)Gal(b1-4)GlcNAc
How it was run: as §1

[22] = molecular target: Fuc(a1-2)Gal(b1-4)GlcNAc(b1-3)GalNAc
How it was run: as §1

[23] = molecular target: Fuc(a1-2)Gal(b1-4)GlcNAc(b1-3)[Fuc(a1-2)Gal(b1-4)GlcNAc(b1-6)]GalNAc
How it was run: as §1

[24] = molecular target: Fuc(a1-2)Gal(b1-4)GlcNAc6S
How it was run: as §1

[25] = molecular target: Fuc(a1-2)Gal(b1-4)[Fuc(a1-3)]GlcNAc
How it was run: as §1

[26] = molecular target: Fuc(a1-2)Gal(b1-4)[Fuc(a1-3)]GlcNAc(b1-2)Man(a1-3)[Fuc(a1-2)Gal(b1-4)[Fuc(a1-3)]GlcNAc(b1-2)Man(a1-6)]Man(b1-4)GlcNAc(b1-4)GlcNAc
How it was run: as §1

[27] = molecular target: Fuc(a1-2)Gal(b1-4)[Fuc(a1-3)]GlcNAc(b1-2)[Fuc(a1-2)Gal(b1-4)[Fuc(a1-3)]GlcNAc(b1-4)]Man(a1-3)[Fuc(a1-2)Gal(b1-4)[Fuc(a1-3)]GlcNAc(b1-2)Man(a1-6)]Man(b1-4)GlcNAc(b1-4)GlcNAc
How it was run: as §1

[28] = molecular target: Fuc(a1-2)Gal(b1-4)[Fuc(a1-3)]GlcNAc(b1-3)Gal(b1-4)[Fuc(a1-3)]GlcNAc
How it was run: as §1

[29] = molecular target: Fuc(a1-2)Gal(b1-4)[Fuc(a1-3)]GlcNAc(b1-3)Gal(b1-4)[Fuc(a1-3)]GlcNAc(b1-3)Gal(b1-4)[Fuc(a1-3)]GlcNAc
How it was run: as §1

[30] = molecular target: Fuc(a1-2)Gal(b1-4)[Fuc(a1-3)]GlcNAc(b1-3)GalNAc
How it was run: as §1

Fuc(a1-2)Gal6S(b1-4)Glc = molecular target: Fuc(a1-2)Gal6S(b1-4)Glc
How it was run: as §1

[31] = molecular target: Fuc(a1-2)Gal6S(b1-4)Glc6S
How it was run: as §1

[32] = molecular target: Fuc(a1-2)Gal6S(b1-4)GlcNAc
How it was run: as §1

Fuc(a1-2)[Gal(a1-3)]Gal = molecular target: Fuc(a1-2)[Gal(a1-3)]Gal
How it was run: as §1

[33] = molecular target: Fuc(a1-2)[Gal(a1-3)]Gal(b1-3)GalNAc
How it was run: as §1

[34] = molecular target: Fuc(a1-2)[Gal(a1-3)]Gal(b1-3)GlcNAc
How it was run: as §1

[35] = molecular target: Fuc(a1-2)[Gal(a1-3)]Gal(b1-3)GlcNAc(b1-2)Man(a1-3)[Fuc(a1-2)[Gal(a1-3)]Gal(b1-3)GlcNAc(b1-2)Man(a1-6)]Man(b1-4)GlcNAc(b1-4)GlcNAc
How it was run: as §1

[36] = molecular target: Fuc(a1-2)[Gal(a1-3)]Gal(b1-3)GlcNAc(b1-2)Man(a1-3)[Fuc(a1-2)[Gal(a1-3)]Gal(b1-3)GlcNAc(b1-2)Man(a1-6)]Man(b1-4)GlcNAc(b1-4)[Fuc(a1-6)]GlcNAc
How it was run: as §1

[37] = molecular target: Fuc(a1-2)[Gal(a1-3)]Gal(b1-3)GlcNAc(b1-3)GalNAc
How it was run: as §1

B1: MFG-E8 (Homo sapiens), Q08431 (protein)
chain: MPRPRLLAALCGALLCAPSLLVALDICSKNPCHNGGLCEEISQEVRGDVFPSYTCTCLKGYAGNHCETKCVEPLGLENGNIANSQIAASSVRVTFLGLQHWVPELARLNRAGMVNAWTPSSNDDNPWIQVNLLRRMWVTGVVTQGASRLASHEYLKAFKVAYSLNGHEFDFIHDVNKKHKEFVGNWNKNAVHVNLFETPVEAQYVRLYPTSCHTACTLRFELLGCELNGCANPLGLKNNSIPDKQITASSSYKTWGLHLFSWNPSYARLDKQGNFNAWVAGSYGNDQWLQVDLGSSKEVTGIITQGARNFGSVQFVASYKVAYSNDSANWTEYQDPRTGSSKIFPGNWDNHSHKKNLFETPILARYVRILPVAWHNRIALRLELLGC
glycan array binding signal (z-score) (Fuc(a1-2)Gal): -0.699 | glycan array binding signal (z-score) (Fuc(a1-2)Gal(b1-3)GalNAc): -0.656 | glycan array binding signal (z-score) [1]: -0.654 | glycan array binding signal (z-score) [2]: -0.511 | glycan array binding signal (z-score) [3]: -0.196 | glycan array binding signal (z-score) [4]: 0.75 | glycan array binding signal (z-score) [5]: 0.211 | glycan array binding signal (z-score) (Fuc(a1-2)Gal(b1-3)GlcNAc): -0.382 | glycan array binding signal (z-score) [6]: 0.999 | glycan array binding signal (z-score) [7]: -0.633 | glycan array binding signal (z-score) [8]: -0.126 | glycan array binding signal (z-score) [9]: -0.517 | glycan array binding signal (z-score) [10]: -0.329 | glycan array binding signal (z-score) [11]: -0.539 | glycan array binding signal (z-score) [12]: -0.33 | glycan array binding signal (z-score) [13]: -0.597 | glycan array binding signal (z-score) [14]: 2.2 | glycan array binding signal (z-score) [15]: 0.03 | glycan array binding signal (z-score) [16]: 0.738 | glycan array binding signal (z-score) (Fuc(a1-2)Gal(b1-4)Glc): 0.071 | glycan array binding signal (z-score) (Fuc(a1-2)Gal(b1-4)Glc6S): -0.507 | glycan array binding signal (z-score) (Fuc(a1-2)Gal(b1-4)GlcNAc): -0.644 | glycan array binding signal (z-score) [17]: -0.011 | glycan array binding signal (z-score) [18]: -0.173 | glycan array binding signal (z-score) [19]: 0.123 | glycan array binding signal (z-score) [20]: -0.457 | glycan array binding signal (z-score) [21]: -0.587 | glycan array binding signal (z-score) [22]: 0.141 | glycan array binding signal (z-score) [23]: -0.713 | glycan array binding signal (z-score) [24]: 0.023 | glycan array binding signal (z-score) [25]: -0.378 | glycan array binding signal (z-score) [26]: 2.88 | glycan array binding signal (z-score) [27]: 2.94 | glycan array binding signal (z-score) [28]: -0.446 | glycan array binding signal (z-score) [29]: 0.4 | glycan array binding signal (z-score) [30]: 1.79 | glycan array binding signal (z-score) (Fuc(a1-2)Gal6S(b1-4)Glc): 0.012 | glycan array binding signal (z-score) [31]: -0.22 | glycan array binding signal (z-score) [32]: -0.745 | glycan array binding signal (z-score) (Fuc(a1-2)[Gal(a1-3)]Gal): -0.258 | glycan array binding signal (z-score) [33]: -0.43 | glycan array binding signal (z-score) [34]: -0.12 | glycan array binding signal (z-score) [35]: -0.131 | glycan array binding signal (z-score) [36]: -0.115 | glycan array binding signal (z-score) [37]: 0.636

Source: the supplement of paper PMC8728848
